Literature values in patent US9029403B2, “Treatment of ovarian cancer with benzylidenebenzohydrazides” (Memorial Sloan-Kettering Cancer Center, priority 2011, dated 2015).
Some results were stated once for a whole list of compounds, not compound by compound.

Test system: Ovcar3-GTL-derived catenae
Details: catenae with glycocalyx; shown in WO2011/057034; cited from earlier work

Structure (SMILES): CC(=O)O[C@H]1C(=O)[C@@]2(C)[C@H]([C@H](OC(=O)c3ccccc3)[C@]3(O)C[C@H](OC(=O)[C@H](O)[C@@H](NC(=O)c4ccccc4)c4ccccc4)C(C)=C1C3(C)C)[C@]1(OC(C)=O)CO[C@@H]1C[C@@H]2O [paclitaxel]
- resistance in catenae conferred by formation of glycocalyx: more than 8,000,000 fold
